Read-outs that look alike come from different tables or passages of the source. No constants are given. Whether binding was seen depends on the method and setting. For part of these data: In cells and extracts the contact can be indirect. Some entries that bind do so weakly or less than the wild type. Where a sequence is shown, tags or fusion partners need not be part of it. Values belong to the molecule of their own block, whether it stands above or below them.
Columns and labels:
[1] = molecular target: T1, WRKY20 (BiFC fusion used with MPK3 or MPK6) (Arabidopsis thaliana) (UniProt Q93WV0); test: split reporter
T1 sequence: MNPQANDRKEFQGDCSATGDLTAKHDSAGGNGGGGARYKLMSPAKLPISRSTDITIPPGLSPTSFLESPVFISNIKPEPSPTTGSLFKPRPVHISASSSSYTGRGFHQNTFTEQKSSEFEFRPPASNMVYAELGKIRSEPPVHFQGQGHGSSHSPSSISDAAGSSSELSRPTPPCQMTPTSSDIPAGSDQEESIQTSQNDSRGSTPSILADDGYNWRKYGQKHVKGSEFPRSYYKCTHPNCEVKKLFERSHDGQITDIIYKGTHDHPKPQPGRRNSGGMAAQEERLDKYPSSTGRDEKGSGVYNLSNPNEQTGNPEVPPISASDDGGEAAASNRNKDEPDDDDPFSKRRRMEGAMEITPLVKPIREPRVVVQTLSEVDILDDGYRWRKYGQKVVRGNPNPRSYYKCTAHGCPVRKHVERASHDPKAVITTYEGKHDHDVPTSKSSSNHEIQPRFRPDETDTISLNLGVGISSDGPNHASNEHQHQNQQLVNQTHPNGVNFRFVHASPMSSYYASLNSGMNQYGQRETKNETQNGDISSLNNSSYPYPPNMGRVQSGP

By UniProt entry, the sequences of proteins in these tests, tags left out.
UniProt Q39026: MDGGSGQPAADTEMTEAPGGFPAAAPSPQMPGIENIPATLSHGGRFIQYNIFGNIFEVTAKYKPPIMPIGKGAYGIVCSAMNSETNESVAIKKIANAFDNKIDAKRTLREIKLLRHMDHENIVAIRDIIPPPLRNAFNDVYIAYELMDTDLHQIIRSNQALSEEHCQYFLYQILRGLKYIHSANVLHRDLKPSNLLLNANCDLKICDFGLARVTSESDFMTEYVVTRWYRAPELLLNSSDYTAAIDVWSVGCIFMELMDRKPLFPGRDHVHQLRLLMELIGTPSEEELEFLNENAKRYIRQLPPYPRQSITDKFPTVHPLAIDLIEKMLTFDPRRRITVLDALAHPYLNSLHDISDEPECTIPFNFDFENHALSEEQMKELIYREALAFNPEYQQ

[2] = molecular target: T1, WRKY20 (BiFC fusion used with MPK3 or MPK6) (Arabidopsis thaliana); test: split reporter; remark: listed apart in the source
[3] = molecular target: T2, BD-WRKY20 (Arabidopsis thaliana) (UniProt Q93WV0); test: two-hybrid
T2 sequence: T1 sequence

binding [1]: binds
binding [2]: binds
Molecule: MPK6 (BiFC fusion used with WRKY20) (from UniProt Q39026 1-395) (enzyme)

binding [3]: binds
Molecule: AD-MPK6 (from UniProt Q39026 1-395) (enzyme)

binding [3]: binds
B1: AD-MPK3 (enzyme, UniProt Q39023 1-370)
chain: MNTGGGQYTDFPAVETHGGQFISYDIFGSLFEITSKYRPPIIPIGRGAYGIVCSVLDTETNELVAMKKIANAFDNHMDAKRTLREIKLLRHLDHENIIAIRDVVPPPLRRQFSDVYISTELMDTDLHQIIRSNQSLSEEHCQYFLYQLLRGLKYIHSANIIHRDLKPSNLLLNANCDLKICDFGLARPTSENDFMTEYVVTRWYRAPELLLNSSDYTAAIDVWSVGCIFMELMNRKPLFPGKDHVHQMRLLTELLGTPTESDLGFTHNEDAKRYIRQLPNFPRQPLAKLFSHVNPMAIDLVDRMLTFDPNRRITVEQALNHQYLAKLHDPNDEPICQKPFSFEFEQQPLDEEQIKEMIYQEAIALNPTYG

binding [1]: binds
binding [2]: binds
B2: MPK3 (BiFC fusion used with WRKY20) (enzyme, UniProt Q39023 1-370)
chain: B1 chain

Reference: doi:10.1101/2020.06.17.158212
